Assay results reported in publication PMC5171793.

Key:
[1] = biological target: Scc1/Rad21/Vtd (endogenous Scc1) (Drosophila (endogenous in S2 cells)); assay: affinity purification with mass spectrometry; 1 mg total protein extract of Drosophila S2 cells (control RNAi or san RNAi) in NB buffer; rabbit anti-Scc1 then Dynabeads Protein G, 4 °C; LC-MS/MS; pre-immune serum as negative control
[2] = biological target: Myc-tagged Scc1 (Drosophila); assay: affinity purification with mass spectrometry; 1 mg total protein extract of S2 cells expressing Myc-tagged Scc1 (control RNAi or san RNAi) in NB buffer; anti-c-Myc magnetic beads, 1 hr at 4 °C; LC-MS/MS; cells with an empty plasmid as negative control

B1: Dalmatian/Sororin (protein, UniProt Q9VH89 1-857)
chain: MVRTRPVPCVPSPDVNTATRRNPGRPKKQSIGADLSTTISKPGRPKKLSIGADLTTIRKPGRPKKLGADLTTIIRKPGRPTKLSNKQSLTALNEPECRIRKCVVKIRRIKVKNGVVSEISRNDAPDVDASTFEPARNSTMYIPSKVQKSTQPQNIKENVAGPETSPCQQRIRSKSPSGPAAEISPKKPPRFFHRDQPLTRTRSSVTRNVFDFLSQSQIEDDSDREDPAADIIQRLVKDGKACVMVRSRKIGKPRAKRTAKKVRPVGNRRKVSTKDNEPEPVKVVPKSIEPRLQKPSRSLSTIFEPEEDYSNDSEHGYVQPIEVPVQVHVEPSTSKQAHEGAYSNLARSVMLNQTQAQNPLPSTDRRRELINMARQLVSTPLNRRAPPVTDVSATTTALSPIAHQSPNAVRTAGGKSPWRVSDDSPLPNTFMFGFNNSQMPSYSSDHVQRRHVYVPDSPVEHAENIPHEESICPPLHEQNHDSNANDSNEENRPPPTISKSMSINDQESEENAENFVHLPNPRRTLQKRTPFKDINILEVVTLPSWKKNVTATVSKEITPTRVAPRPMATSSPAQRSQTRSNLFGFDDDFACEDIPRKSTTPSKGIAPTSMSLNREVTPALANRNQTEVNTFGCNEILPCENIPKEKETNTEERTSSSQNLFGFDEFITESQDSPANFTGLSQNVNLHDKLHRLAELRPRDGELPQVSYTSIRSDCLGESHSKQTDIRYMLCSTMIAPPRPAKRKPAAPTARESMGLFRVDQDEPEQSFADKQPRRTYVKERPQRKRKKRVQILYIESESEDEDEQDSHDKSLDSPEKKRHHVKRPRRDIEHEAKLEQFVTSFNKQCEEVEKFPVIIE
In the case of B1, the binding [1] is reported as “no binding” and the binding [2] is reported as “no binding”.

No constants are given. Whether binding was seen depends on the method and setting. Binding seen in cells or lysates may run through a third protein. These calls come from enrichment with a bait or labelling near it, and not all partners need be listed. No binding means not detected with the bait.
